{
  "source": "PubChem BioAssay AID504775",
  "about": "(Broad Institute, 2011)",
  "note": "Out of some 320,000 compounds screened, about 310 (0.097%) were called active. All entries are inconclusive by the source's own rule. Clear calls are listed elsewhere.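 The calls were made as follows: active = mean replicate activation of at least 60% and every replicate at or above 60%; inconclusive = mean or all-replicate condition met, but not both; inactive = mean below 60% and not all replicates reaching 60%.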",
  "data": [
    {"assay": "enhancers of HDL lipid transfer via mSR-BI – ldlA[mSR-BI] CHO cells, DiI fluorescence, primary screen (AID 504775);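 also: 0% = median plate neutral-control signal and 100% = twice that signal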", "details": "DiI-HDL uptake fluorescence, 3 h, at 12.5 µM, active compounds read high, 100 = double the neutral-control signal", "in_short": "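System: LDL receptor-deficient CHO ldlA cells overexpressing murine SR-BI | Timing: 3 h uptake period with compound, 37 °C | Medium: HEPES-buffered (25 mM, pH 7.4) F12 plus 0.5% BSA | Dosing: Single-point compound dose | Signal: Bottom-read fluorescence, 550/595 nm | Read-out: Retained DiI signal reflecting DiI-HDL uptake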", "values": [
      {"smiles": "CP(=O)(Nc1ccccc1Br)Oc1ccccc1", "note": "(configuration not stated)", "activation": "inconclusive: 63.6%"},
      {"smiles": "COc1ccc(OP(C)(=O)Nc2ccc(Br)cc2)cc1", "note": "(configuration not stated)", "activation": "inconclusive: 137%"}
    ]}
  ]
}
